We go through one substance from article PMC3480639.

Results are given in words; binding and its absence hold for the method and conditions named. For some of these results: Binding calls can cover weak binding; strength is not graded here. Sequences can lack the tags named with a protein.

Experiment [1] has as its target T1, GFP:Laci-Repo-Man^1–135 (human) (UniProt Q69YH5).
T1 sequence: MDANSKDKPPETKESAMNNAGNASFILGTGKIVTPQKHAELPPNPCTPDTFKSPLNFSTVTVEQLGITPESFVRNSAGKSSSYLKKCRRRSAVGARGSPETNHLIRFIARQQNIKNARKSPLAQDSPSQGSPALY
The experiment in a line: LacI-LacO tethering, recruitment seen by fluorescence microscopy; GFP:Laci fusion tethered to a LacO array at a single locus in DT40 cells, endogenous Importin β stained with an antibody; prometaphase/metaphase cells.

For experiment [2], the target named is T2, GFP:Laci-Repo-Man^WT (human) (UniProt Q69YH5).
T2 sequence: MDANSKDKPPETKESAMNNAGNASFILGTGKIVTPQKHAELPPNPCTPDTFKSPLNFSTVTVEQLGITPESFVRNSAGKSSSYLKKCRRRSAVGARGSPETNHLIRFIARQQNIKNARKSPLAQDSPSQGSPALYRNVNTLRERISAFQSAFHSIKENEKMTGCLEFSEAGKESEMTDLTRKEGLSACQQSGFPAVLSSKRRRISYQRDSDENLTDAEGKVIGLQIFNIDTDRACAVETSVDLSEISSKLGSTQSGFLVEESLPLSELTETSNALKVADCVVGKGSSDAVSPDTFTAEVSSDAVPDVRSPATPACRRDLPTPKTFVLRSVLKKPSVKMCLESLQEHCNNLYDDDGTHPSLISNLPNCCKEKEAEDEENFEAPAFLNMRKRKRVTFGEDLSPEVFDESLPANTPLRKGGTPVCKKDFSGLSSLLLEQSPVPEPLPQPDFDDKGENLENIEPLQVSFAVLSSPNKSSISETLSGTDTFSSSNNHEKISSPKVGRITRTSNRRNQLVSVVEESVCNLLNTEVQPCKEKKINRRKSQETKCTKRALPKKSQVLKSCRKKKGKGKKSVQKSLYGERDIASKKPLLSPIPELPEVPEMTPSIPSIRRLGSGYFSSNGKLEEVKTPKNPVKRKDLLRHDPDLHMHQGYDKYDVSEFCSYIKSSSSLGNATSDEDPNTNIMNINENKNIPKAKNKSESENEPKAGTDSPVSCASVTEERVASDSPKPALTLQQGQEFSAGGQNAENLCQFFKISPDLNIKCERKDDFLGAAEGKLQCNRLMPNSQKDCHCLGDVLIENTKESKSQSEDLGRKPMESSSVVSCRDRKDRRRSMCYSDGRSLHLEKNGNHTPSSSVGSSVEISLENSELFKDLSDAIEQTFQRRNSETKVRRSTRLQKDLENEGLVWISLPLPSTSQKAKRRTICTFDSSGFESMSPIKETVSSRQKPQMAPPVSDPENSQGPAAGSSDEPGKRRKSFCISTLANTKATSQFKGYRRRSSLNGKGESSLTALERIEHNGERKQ
The experiment is described as above.

In experiment [3] the target is T1, GFP:Laci-Repo-Man^1–135 (human). The experiment in a line: LacI-LacO tethering, recruitment seen by fluorescence microscopy; GFP:Laci fusion tethered to a LacO array at a single locus in DT40 cells, endogenous Importin β stained with an antibody; anaphase/telophase cells.
Experiment [4] concerns the target T2, GFP:Laci-Repo-Man^WT (human). The experiment is described as above.

Consider “Importin β (endogenous, DT40) (chicken (endogenous in DT40))”, for which the binding entry in experiment [1] is “no binding (only in prometaphase/metaphase cells)”; in experiment [2], “no binding (only in prometaphase/metaphase cells)”; in experiment [3], “binds”; in experiment [4] it was “binds”.
